Experimental data from patent US8076455B2, “Guanosine triphosphate (GTP)-binding protein-coupled receptor protein, BG37” (Merck Sharp & Dohme Corp., priority 2000, dated 2011).
For at least one compound, name, drawing or mass did not settle the structure.

Target: T1, human BG37 (Homo sapiens, UniProt Q8TDU6)
T1 construct: Human BG37 gene cut out, utilizing the BamHI-EcoRV site, from pCR2.1-BG37ORF was subcloned into the BamHI-EcoRV digested pKT52 vector; expressed in transfected cells
T1 sequence (Q8TDU6 1-330): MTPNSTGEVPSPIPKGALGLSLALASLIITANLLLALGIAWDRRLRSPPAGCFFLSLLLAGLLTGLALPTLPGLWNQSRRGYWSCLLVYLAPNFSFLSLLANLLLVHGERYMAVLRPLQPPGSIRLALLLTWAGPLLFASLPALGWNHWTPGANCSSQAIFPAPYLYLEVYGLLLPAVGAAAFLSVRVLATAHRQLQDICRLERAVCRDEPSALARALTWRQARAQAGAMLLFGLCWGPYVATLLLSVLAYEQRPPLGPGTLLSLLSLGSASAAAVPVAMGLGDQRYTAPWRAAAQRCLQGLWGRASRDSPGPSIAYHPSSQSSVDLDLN
Assay: Bile acid-dependent increase of intracellular cAMP level (HTRF) in cells expressing the human BG37
Format: cell-based
Conditions: cells expressing the human BG37 (HEK/hBG37); reagent at various concentrations, 37° C. for 20 minutes
Procedure: The intracellular cAMP level in the presence of a ligand was measured to determine the increase of the intracellular cAMP level through G proteins bound to the seven-transmembrane receptor.
On the day before the measurement of the intracellular cAMP level, cells were re-plated at a cell density of 4×10^4 cells/well on a poly-D-lysin-coated 96-well plate (Becton Dickinson), and then incubated at 37° C. for another 24 hours. Cells of the stable cell line were rinsed twice with 1 mM 3-Isobutyl-1-Methylxanthine (IBMX) (Nacalai Tesque) containing Opti-MEM solution (GIBCO BRL) (Opti-MEM-BSA-IBMX solution), and then incubated at 37° C. for 20 minutes. After removing the supernatant, Opti-MEM-IBMX solution containing a reagent at various concentrations was added thereto. The resulting mixture was incubated at 37° C. for 20 minutes. Then, the cells were lysed with 0.5% Triton X-100 to determine the level of intracellular cAMP.
Measurement of the intracellular cAMP level was carried out using cyclic AMP kit (HTRF) (Nihon Schering) according to the provided manual.

`C[C@H](CCC(=O)O)[C@H]1CC[C@H]2[C@@H]3[C@@H](O)C[C@@H]4C[C@H](O)CC[C@]4(C)[C@H]3CC[C@]12C` [ursodeoxycholic acid] was tested, and the “intracellular cAMP level” value was “elevated”.
